Source: patent US20190009248A1, “ELEMENT FOR EXTRACTING ORGANIC COMPONENTS” (GERSTEL K.K., priority 2016, published 2019)

Experiments:
[1] = Extraction of organic components from espresso coffee with methyl tert-butyl ether-swelled PDMS element TWISTER-011333-001-00, acetone back extraction, GC-MS; conditions: coffee 5 mL; swelled with methyl tert-butyl ether (head: Working Example 11)
[2] = Extraction of organic components from beer with solvent-swelled PDMS element TWISTER-011333-001-00 (63 μL), acetone back extraction, GC-MS; conditions: beer 5 mL
[3] = Working example 8, PDMS 63 μL swelled with dichloromethane
[4] = Working example 9, PDMS 63 μL swelled with diisopropyl ether
[5] = Working example 10, PDMS 63 μL swelled with cyclohexane

| Structure (SMILES) | relative peak intensity (normalized with Comparative Example 13, no solvent) [1] | relative peak intensity (normalized with Comparative Example 6, no solvent) [2, 3] | relative peak intensity (normalized with Comparative Example 6, no solvent) [2, 4] | relative peak intensity (normalized with Comparative Example 6, no solvent) [2, 5] |
| --- | --- | --- | --- | --- |
| Cc1cnc(C)cn1 [2,5-Dimethylpyrazine] | 2.0 | – | – | – |
| CC(=O)c1ccco1 [2-Acetylfuran] | – | 10 | 3.9 | 1.9 |
| CC(=O)c1ccc[nH]1 [2-Acetylpyrrole] | 9.0 | 13 | 9.2 | 1.5 |
| CCc1ncc(C)nc1C [2-Ethyl-3,5-dimethylpyrazine] | 1.6 | – | – | – |
| CCc1cnc(C)cn1 [2-Ethyl-5-methylpyrazine] | 1.5 | – | – | – |
| CC1CC(C)C(=O)C1=O (stereo not drawn) [3,5-dimethyl-1,2-cyclopentanedione] | 16 | – | – | – |
| CCC1=C(O)C(=O)CC1 [3-Ethyl-2-hydroxy-2-cyclopenten-1-one] | 14 | – | – | – |
| C=Cc1ccc(OC)c(O)c1 [4-Vinylguaiacol] | 1.7 | 2.3 | 2.6 | 1.5 |
| C=Cc1ccc(O)cc1 [4-Vinylphenol] | 4.9 | 4.8 | 7.8 | 1.4 |
| Cc1ccc(C=O)o1 [5-Methylfurfural] | 3.0 | – | – | – |
| CC(=O)OCc1ccco1 [Furfuryl acetate] | 1.7 | – | – | – |
| OCc1ccco1 [Furfuryl alcohol] | 14 | 12 | 21 | 1.8 |
| COc1ccccc1O [Guaiacol] | 4.8 | 4.6 | 9.6 | 8.1 |
| CCCCCC(=O)O [Hexanoic acid] | – | 5.3 | 6.5 | 1.9 |
| CC(C)C(=O)O [Isobutyric acid] | – | 6.8 | 25 | 2.0 |
| Cc1occc(=O)c1O [Maltol] | 4.3 | – | – | – |
| CSCCCO [Methionol] | – | 16 | 17 | 1.7 |
| CCCCCCCC(=O)O [Octanoic Acid] | – | 2.1 | 3.2 | 1.0 |
| OCCc1ccccc1 [Phenethyl alcohol] | – | 6.8 | 6.8 | 1.8 |
| Oc1ccccc1 [Phenol] | 29 | – | – | – |
| CCCCC(=O)O [Valeric acid] | 122 | 9.1 | 25 | 2.1 |
| CCCCCC1CCC(=O)O1 (stereo not drawn) [γ-Nonalactone] | – | 1.8 | 2.2 | 1.2 |
